These are yes or no findings as the source states them, for the method shown. Some entries that bind do so weakly or less than the wild type.
What was measured:
[1] = target: cyno IgE c(epsilon)2-c(epsilon)3-c(epsilon)4 Fc fragment with C-terminal (His)10 tag (cynomolgus monkey); assay: Alphascreen competition with HuFc(epsilon)RI(alpha)Fc for cyno IgE Fc
[2] = target: cyno IgE c(epsilon)2-c(epsilon)3-c(epsilon)4 Fc fragment with C-terminal (His)10 tag (cynomolgus monkey); assay: Alphascreen screening of periplasmic extracts, block of cyno IgE Fc / HuFc(epsilon)RI(alpha)Fc

B1: Nanobody 39D8 (VHH, not shown: small tags and cut ends)
VHH: EVQLVESGGGLVQPGGSLRLSCAASGFTFGSYDMSWVRQAPGKGPEWVSSIDTGGDITHYADSVKGRFTISRDNANNMLYLQMNSLKPGDTAVYWCATDEDYALGPNEYDYYGQGTQVTVSS
For B1, which binding [1] is on record?
Its binding is “binds”.

And the binding [2]?
The binding was “binds”.

B2: Nanobody 42D7 (VHH, not shown: small tags and cut ends)
VHH: EVQLVESGGGLVQPGGPLRLSCAASGFTFGSYDMSWVRQAPGKGPEWVSSIDTGGDITHYADSVKGRFTISRDNANNMLYLQMNSLKPEDTAVYWCATDEDYALGPNEYDYYGQGTQVTVSS
Which binding [1] does the source give for B2 here?
Its binding is “binds”.

And the binding [2]?
The binding was “binds”.

B3: Nanobody 42G5 (VHH, not shown: small tags and cut ends)
VHH: EVQLVESGGGLVRPGGSLRLSCAASGFTFGNYDMSWVRQAPGKGPEWVSSIDTGGDITHYADPVKGRFTISRDNAANTLYLQMNSLKPEDTAVYYCATDEDYALGPNEYDYYGQGTQVTVSS
How did the binding [1] turn out when B3 was run?
Its binding is “binds”.

And the binding [2]?
The binding was “binds”.

B4: Nanobody 36G5 (VHH, not shown: small tags and cut ends)
VHH: EVQLVESGGGLVQPGGSLRLSCVASGFTFGSYDMSWVRQAPGKRPEWVSAINSGGGSTYYADSVKGRFTISRDNAKNTLYLQMNSLKPEDTAVYYCATDEDYALGPNEYDYYGQGTQVTVSS
Which results are given for B4?
binding [1]: binds; binding [2]: binds

— patent WO2012175740A1
